The text below walks through data of the supplement of paper PMC5949888.

Most values lie at the floor of the assay. Slopes are relative: functional sequences can read slightly below zero. A value given as a limit tells only on which side of the number the result lay.

The subject of this series is Saccharomyces cerevisiae PS128 hsf1 delta, HSF1(1-493) fusion. Nature of the series: growth estimate (transactivation domain function in HSF1 fusion, heat-shock survival) (a.u. (slope of normalised read count over time)); higher = stronger growth at 37°C, i.e. more transactivation activity. The following applies: library: random library. On the procedure:
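Random 60-nt DNA library encoding peptides of up to 20 aa, fused to the C-terminus of yeast HSF1 residues 1-493 (C-terminal TAD deleted) and expressed from the native HSF1 promoter on a CEN plasmid in hsf1-deleted S. cerevisiae PS128. Cells were selected at 37°C on -trp 5-FOA plates for 0, 2, 4, 6 and 8 days and amplicons were sequenced. Growth estimate is the slope of a robust linear fit of total-sum-normalised read counts (normalised to the first time point) over time, using at least 2 replicates. Sequences are classed functional (TAD activity) above a threshold of -0.13, set from stop-codon control sequences.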
For the substance SVALISSKG, the growth estimate was less than -0.25.
Next, TLMRPPSGYSK: less than -0.25.
IRGTHLDIECRRQEFRLPVR: the growth estimate is less than -0.25.
Next, GCAPVSLPAILALYQSVLAH: less than -0.25.
Next, MGACFTCSASFFELRGYS: less than -0.25.
Turning to SYRGFKRRSSYWYLS, the growth estimate is less than -0.25.
For SPSCLYEVLGLWVASSL, the growth estimate was less than -0.25.
Next, FNCQGTVGLC: less than -0.253.
Consider SATMGWSQDGPRSDCRSGGH, for which the growth estimate is less than -0.25.
With SIHPAEIELTSTAS, the growth estimate is less than -0.25.
On to EPKVVTSRNGGVYPVPITPP, for which the growth estimate was less than -0.25.
For YSSTT, the growth estimate was less than -0.25.
The same measure for GQLWSRRVEGRSWVLLFPGI: less than -0.25; for QRERSPSREGFTPGKIKP: less than -0.25.
Take VETLCRRQS: the growth estimate was less than -0.25.
Next, SPITRGPPIVDLAP: less than -0.25; CCSSL: -0.209.
Next, LRFRPGRW: -0.219; AWGEWV: -0.25; NTKIYVRLVLVPASWVSFPS: less than -0.25.
As to VVSRCTYQK, the growth estimate is less than -0.25.
VPSSPLSYGFHKPKGRIGMV: the growth estimate is less than -0.25.
Next, IVKAEVVSIVRVGRIAGASH: less than -0.25; YTPE: less than -0.25.
Next, TRCYQFPWWDSHGRVLTRV: less than -0.25; AGGCDWFLETERRVPNLCRP: less than -0.25; GEWLSVAE: less than -0.25.
VPWRP: the growth estimate is less than -0.25.
Next, GRGYHTERAGLRLGSAPARW: less than -0.25; QMSS: less than -0.25; NRGWDAHGIIVKCESRCRTR: less than -0.25.
For YTADEGP, the growth estimate was less than -0.25.
HRVNGRSGGIWPGGHCIPGK: the growth estimate is less than -0.25.
The same measure for RRIYYPDNREMPRVILATLP: less than -0.25; for RSSGDVGPGSHGVR: less than -0.25; for NNRSGTVFPSHWVNWGA: less than -0.25.
Next, TYRISVQKR: -0.248; PGAFPDHMIL: less than -0.25.
The same measure for TWTLLDGC: -0.233; for WGNSIATILQPSSARTGNIA: less than -0.25; for DRMAMPVCS: -0.112.
As to IGIASNGGKNSSPEACRWGG, the growth estimate was less than -0.25.
For the substance VFVAVA, the growth estimate is less than -0.25.
The same measure for EVFRITRQDYSTSAYDEARR: -0.0563; for GLYGLPYFRRAIQTNRAGML: less than -0.25; for DCYP: less than -0.25.
The same measure for ESIPLEEMVGDLY: less than -0.25; for GAPVLTRRLSGGTFTALR: less than -0.25.
As for QIVISHGPR, the growth estimate is less than -0.253.
Regarding RQLMWGRLLISELVLPRGGI, the growth estimate was less than -0.25.
Next, PIVYTSRLASSKALRQQATR: less than -0.25; RWNERFVPWIWWIPPVSGSV: less than -0.25.
The same measure for DDWPIRAWRIAGC: less than -0.25.
Turning to YNTIESLAAQSSFVFALYVL, the growth estimate is less than -0.25.
Take HAQISTL: the growth estimate is less than -0.25.
For the substance RFPQSSCRT, the growth estimate is less than -0.25.
The same measure for AVPHHSGNRSEGKAGNVRWE: less than -0.25; for ELDKVRVLIL: less than -0.25.
Next, VKRVPKNGPSS: less than -0.25.
As for FPAGYYARARSNSSGEPRDC, the growth estimate is less than -0.25.
For SDGPQARWFGLRKYMVFYF, the growth estimate is less than -0.25.
With KRVLNPTQTV, the growth estimate was less than -0.25.
For MPLRRSSICHIRAESKRGVS, the growth estimate is less than -0.25.
Next, EGIGANQE: less than -0.25.
In the case of HSSGLALWPIADC, the growth estimate is -0.0302.
Next, GHLGLE: less than -0.25; RLWTRTHVHSTSGVLARADL: less than -0.25; RTKICRLVLVNGHRDVARNR: less than -0.25.
Next, QGLGP: less than -0.25; PLRGKRG: less than -0.25.
The same measure for TGLCGTEVSNIPTQEDIVQW: less than -0.25; for RVSAEARVGMQAARTQFVGS: less than -0.25; for LRRIKGKRQRLWL: less than -0.25.
Regarding RSSGLFSDRYLVFNRRERRL, the growth estimate was less than -0.25.
In the case of RGTVT, the growth estimate was less than -0.25.
The same measure for CQRHITMEGQKCVGDF: less than -0.25.
